{"source": "PubChem BioAssay AID588855", "about": "(National Center for Advancing Translational Sciences (NCATS), 2011)", "note": "This is a selection; strong and weak results do not stand in their true shares. Records with an inconclusive call do not appear. Activity calls are given as the source filed them. Calls come from the whole dose curve; as a rule, active = well fitted inhibition curve with a large enough effect; inconclusive = small, poorly fitted or top-dose-only effect; inactive = no such curve, though single readings can be large or run the other way. Potency is the fitted concentration of half-maximal effect.", "data": [{"assay": "qHTS for Inhibitors of TGF-b; note: nearly all actives have a fitted effect of over 65% in size", "settings": "HepG2 CAGA-GFP TGF-b/SMAD3 reporter, GFP fluorescence, 18 h; TGF-beta stimulated, 500 pg/mL final", "description": "TGF-b is a main component in the TGF-b signaling pathway which plays diverse roles in cellular and development pathways. TGF-b is the mediated by the transcription factors Smads. Although the Smad-dependent pathway is the primary canonical TGF-b signaling node, TGF-b1 can also activate alternative signaling pathways, including those involving MAPK (ERK, JNK and p38). This interaction may mediate or enhance Smad-dependent responses, or can exert Smad-independent effects. The complexity of this signaling cascade allows the TGF-b superfamily to perform unique, overlapping or redundant functions. […] We aim to identify Smad3-small molecule antagonists using a quantitative high throughput screening (qHTS) approach. […]\nSuspensions of trypsinized HEPG2 CAGA-GFP cells were dispensed into white, tissue culture-treated, solid 1536-well plates at 5uL/well (1000 cells/well final concentration) in DMEM medium supplemented with 1% FBS. […] The plates were measured on an Acumen eX3 Explorer plate reader for GFP fluorescence (ex488/em500-530). GFP values were calculated by determining the mean GFP fluorescence of individual cells, and compiling these values for each well to determine a total well GFP signal. The %Activity was determined from the corrected fluorescence values. […]\nConcentration-response curves were fitted to the signals arising from the resulting fluorescence. […]", "values": [{"smiles": "COc1cc2c(c(OC)c1OC)-c1ccc(OC)c(=O)cc1C(N)CC2", "note": "(stereo unspecified)", "Potency": "active: 398 nM"}]}]}
